{
  "sequences": {"note": "By UniProt entry, the sequences of proteins in these tests, tags left out.", "UniProt Q96P20, whole entry": "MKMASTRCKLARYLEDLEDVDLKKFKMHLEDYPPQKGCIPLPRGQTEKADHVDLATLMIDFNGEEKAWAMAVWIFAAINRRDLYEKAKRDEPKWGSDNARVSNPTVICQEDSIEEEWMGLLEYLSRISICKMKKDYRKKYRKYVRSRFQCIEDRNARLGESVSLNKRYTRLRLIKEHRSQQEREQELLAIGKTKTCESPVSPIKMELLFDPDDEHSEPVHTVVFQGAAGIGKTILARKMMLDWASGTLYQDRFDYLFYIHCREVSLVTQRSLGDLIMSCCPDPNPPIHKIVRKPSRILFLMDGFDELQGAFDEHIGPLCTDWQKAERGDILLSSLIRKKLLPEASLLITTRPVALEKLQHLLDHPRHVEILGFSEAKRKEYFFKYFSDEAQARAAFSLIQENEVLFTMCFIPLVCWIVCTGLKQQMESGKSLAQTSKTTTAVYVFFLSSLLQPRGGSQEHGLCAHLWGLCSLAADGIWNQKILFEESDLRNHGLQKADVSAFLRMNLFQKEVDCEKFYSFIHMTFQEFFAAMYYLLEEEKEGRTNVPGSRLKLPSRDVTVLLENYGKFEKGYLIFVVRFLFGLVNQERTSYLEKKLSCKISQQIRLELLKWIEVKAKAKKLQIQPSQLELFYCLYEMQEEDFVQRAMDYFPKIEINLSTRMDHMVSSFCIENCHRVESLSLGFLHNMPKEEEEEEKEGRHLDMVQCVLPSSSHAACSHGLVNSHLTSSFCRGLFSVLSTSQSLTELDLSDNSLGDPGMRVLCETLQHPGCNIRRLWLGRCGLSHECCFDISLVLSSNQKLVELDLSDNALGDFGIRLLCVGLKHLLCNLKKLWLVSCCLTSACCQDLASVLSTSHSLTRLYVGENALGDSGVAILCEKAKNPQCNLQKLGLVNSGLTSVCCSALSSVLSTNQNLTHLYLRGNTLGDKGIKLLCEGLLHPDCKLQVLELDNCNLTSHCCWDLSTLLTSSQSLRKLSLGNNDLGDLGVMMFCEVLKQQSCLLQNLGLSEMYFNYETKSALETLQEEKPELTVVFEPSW"},
  "source": "patent US11613542B2",
  "about": "“Sulfonylureas and sulfonylthioureas as NLRP3 inhibitors” (Inflazome Limited, priority 2017, dated 2023)",
  "key": {"NLRP3 [1]": {"target": "T1, NLRP3 (Homo sapiens, UniProt Q96P20)", "test": "THP-1 cells pyroptosis assay", "type": "cell-based", "parameters": "Seed THP-1 cells (25,000 cells/well) containing 1.0 μg/ml LPS; host or cells: THP-1 cells, LPS-primed, nigericin-stimulated", "settings": "1.0 μg/ml LPS, compound 3 hrs, nigericin 5 μM 1 hr, resazurin readout", "excerpt": "NLRP and Pyroptosis It is well established that the activation of NLRP3 leads to cell pyroptosis and this feature plays an important part in the manifestation of clinical disease (Yan-gang Liu et al., Cell Death &Disease, 2017, 8(2), e2579; Alexander Wree et al., Hepatology, 2014, 59(3), 898-910; Alex Baldwin et al., Journal of Medicinal Chemistry, 2016, 59(5), 1691-171; Ema Ozaki et al., Journal of Inflammation Research, 2015, 8, 15-27; Zhen Xie & Gang Zhao, Neuroimmunology Neuroinflammation, 2014, 1(2), 60-65; Mattia Cocco et al., Journal of Medicinal Chemistry, 2014, 57(24), 10366-10382; T. Satoh et al., Cell Death &Disease, 2013, 4, e644). Therefore, it is anticipated that inhibitors of NLRP3 will block pyroptosis, as well as the release of pro-inflammatory cytokines (e.g. […]) from the cell. THP-1 Cells: Culture and Preparation THP-1 cells (ATCC #TIB-202) were grown in RPMI containing L-glutamine (Gibco #11835) supplemented with imM sodium pyruvate (Sigma #S8636) and penicillin (100 units/ml)/streptomycin (0.1 mg/ml) (Sigma #P4333) in 10% Fetal Bovine Serum (FBS) (Sigma #Fo804). The cells were routinely passaged and grown to confluency (˜10^6 cells/ml). […] The cells were then counted and viability (>90%) checked by Trypan blue (Sigma #T8154). […] Plates were read in an Envision reader at Ex 560 nm and Em 590 nm • 9. […]"}, "NLRP3 [2]": {"target": "T1, NLRP3", "test": "Human whole blood IL1β release assay", "type": "cell-based", "parameters": "Human whole blood in Li-heparin tubes was obtained from healthy donors; from tissue; host or cells: human whole blood from healthy donors, LPS-primed, nigericin-stimulated", "settings": "1 μg/ml LPS, compound 3 hrs, nigericin 10 μM 1 hr, IL-1β AlphaLisa, read-out: HWB IC50", "description": "Human Whole Blood IL1β Release Assay\nFor systemic delivery, the ability to inhibit NLRP3 when the compounds are present within the bloodstream is of great importance. For this reason, the NLRP3 inhibitory activity of a number of compounds in human whole blood was investigated in accordance with the following protocol.\nHuman whole blood in Li-heparin tubes was obtained from healthy donors from a volunteer donor panel. • 1. Plate out 80 μl of whole blood containing 1 μg/ml of LPS in 96-well, clear bottom cell culture plate (Corning #3585) • 2. Add 10 μl compound (8 points half-log dilution with 10 μM top dose) or vehicle (DMSO 0.1% FAC) to the appropriate wells • 3. Incubate for 3 hrs at 37° C., 5% CO2 • 4. Add 10 μl Nigericin (Sigma #N7143) (10 μM FAC) to all wells • 5. Incubate for 1 hr at 37° C., 5% CO2 • 6. At the end of the incubation period, spin plates at 300 xg for 5 mins to pellet cells and remove 20 μl of supernatant and add to 96-well v-bottom plates for IL-1β analysis (note: these plates containing the supernatants can be stored at −80° C. to be analysed at a later date) • 7. IL-1β was measured according to the manufacturer protocol (Perkin Elmer-AlphaLisa IL-1 Kit AL220F-5000) • 8. IC50 data is fitted to a non-linear regression equation (log inhibitor vs response-variable slope 4-parameters)"}},
  "note": "At least one compound was matched to its structure with a doubt left.",
  "data": [
    {"smiles": "CC(C)c1cc(Cl)cc(C(C)C)c1NC(=O)NS(=O)(=O)c1cc(C(=O)N(C)C)n(C)n1", "note": "[Example 168, 3-(N-((4-Chloro-2,6-diisopropylphenyl)carbamoyl)sulfamoyl)-N,N,1-trimethyl-1H-pyrazole-5-carboxamide]", "values": [
      {"measurement": "IC50", "setting": "NLRP3 [1]", "result": "< 160", "unit": "nM"},
      {"measurement": "IC50", "setting": "NLRP3 [2]", "result": "< 3200", "unit": "nM"}
    ]}
  ]
}
